For at least one compound, name, drawing or mass did not settle the structure.
What was measured:
TSC-null cells [1] = assay: LC-MS/MS metabolomics; format: cell-based; conditions: 30 nM, 6 hours
TSC-null cells [2] = assay: ROS levels in TSC-null cells; format: cell-based; conditions: THZ1 30 nM, 48 hr, vs TSC-addback cells
Excerpt: FIGS. 8A-8G. Reduction of glutathione and increase in ROS in THZ1-treated TSC null cells. […] Arrow indicates glutathione. (n=3 samples) (FIG. 8B) Heat map showing the top 15 metabolites with greatest change in 621.101.TSC2− cells, with comparison to control and similarly-treated 621.101.TSC2-addback cells (n=3 samples). The scale is log 2 fold-change. […] Each data point represents the mean±SEM of three independent experiments (** p<0.01; *** p<0.001). […] Each data point represents the mean±SEM of three independent experiments (* p<0.05; ** p<0.01; *** p<0.001). […] Phase contrast images are at top. Cell death (%) is shown at bottom for these treatments as well as RAP (rapamycin 20 nM) and NAC (2 mM) for HCV.29.TSC1− and 621-101.TSC2− after 48 hours of treatment, measured by Trypan blue staining. Each data point represents the mean±SEM of three independent experiments (* p<0.05; ** p<0.01; *** p<0.001).
As GSH is the major intracellular antioxidant […], reactive oxygen species (ROS) were next measured in these cells.
In addition, to examine whether glutathione depletion was the proximate cause of apoptosis in THZ1-treated TSC-null cells, cells were treated with GSH reduced ethyl ester (GSH-MEE), a membrane-permeable derivative of GSH.

TSC-null cells [3] = assay: Low dilution plating colony formation assay; format: cell-based; conditions: 30 nM, 10 days, TSC-null vs TSC-addback
TSC-null cells [4] = assay: Mitochondrial ROS, MitoSOX Red confocal microscopy; format: cell-based; conditions: 16 hours, vs DMSO
TSC-null cells [5] = assay: Cell death and apoptosis (phase contrast, PI staining, cleaved caspase 3); format: cell-based
[6] = test system: kidney cystadenomas in Tsc2+/− A/J strain mice; conditions: 1 month treatment
Excerpt: FIGS. 12A-12F. […] (FIG. 12A) Experimental plan. Tsc2+/− A/J strain mice develop kidney cystadenomas with 100% penetrance by 4 months of age with progressive tumor development. […] (FIG. 12B) Number of tumors per kidney in each treatment group (n=kidney number). ***p<0.001. (FIG. 12C) Tumor volume per kidney, with each data point corresponding to one kidney. (FIG. 12D) Renal cystadenoma histology in the treated mice. Representative tumor images are shown for each treatment cohort. Cystadenomas and tumors each are shown at 100×. […] (FIG. 12E) Ki-67 staining to assess cell proliferation in kidney sections from the treated mice. All images are at 100× magnification. Percentage of tumor cells with nuclear immunoreactivity of Ki-67 was scored from six random fields per section. ***p<0.001.
FIGS. 13A-13B. […]
Tsc2+/− A/J strain mice develop kidney cystadenomas by 4 months of age, and provide a native in vivo model that is […] human TSC patients, and is driven by spontaneous second hit events that lead to complete loss of Tsc2 expression and mTORC1 activation (Auricchio et al., 2012; Guo and Kwiatkowski, 2013; Woodrum et al., 2010). […] Rapamycin was dramatically effective in reducing tumor volume by about 99%, as assessed semi-quantitatively on H&E-stained sections (FIG. 12C), similar to what we have seen previously (Guo and Kwiatkowski, 2013). […]

Compound | glutathione (GSH) level (TSC-null cells [1]) | ROS levels (TSC-null cells [2]) | colony formation (TSC-null cells [3]) | mtROS (TSC-null cells [4]) | cell death by phase contrast imaging (TSC-null cells [5]; 30 nM, 72 hours, TSC-null compared to TSC-addback) | apoptotic cell death (PI staining, cleaved caspase 3) (TSC-null cells [5]; TSC-null in contrast to TSC-addback) | Ki67 staining in residual lesions [6]
CN(C)C/C=C/C(=O)Nc1ccc(C(=O)Nc2cccc(Nc3ncc(Cl)c(-c4c[nH]c5ccccc45)n3)c2)cc1 [THZ1] | decreased to the largest degree among 241 measured metabolites | marked increase in ROS levels | marked reduction in colony formation | increase in mtROS | dramatic cell death | selectively induced | 
CO[C@H]1C[C@@H]2CC[C@@H](C)[C@@](O)(O2)C(=O)C(=O)N2CCCC[C@H]2C(=O)O[C@H]([C@H](C)C[C@@H]2CC[C@@H](O)[C@H](OC)C2)CC(=O)[C@H](C)/C=C(\C)[C@@H](O)[C@@H](OC)C(=O)[C@H](C)C[C@H](C)/C=C/C=C/C=C/1C [rapamycin] |  |  |  |  |  |  | markedly reduced

Source: patent US20200197392A1, “COMPOSITIONS AND METHODS FOR TREATING TUBEROUS SCLEROSIS COMPLEX” (THE BRIGHAM & WOMEN'S HOSPITAL, INC., priority 2017, published 2020)
